Record: PubChem BioAssay AID1508597 (Cure First, 2020)
This is an unselected part of the about 2,100 reagents, under one of the conditions tested. 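Calls flag viability under 80% in either arm, not effects specific to rucaparib; the reference for percent is not stated.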 Some reagents were tested in more than one well and are listed for each. Reagent sequences are not shown. The record does not give: the 100% reference.

Test: 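Survival screen with siRNA in ovarian cancer cells derived from patients, with or without rucaparib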 (primary screen)
Cells: human ovarian carcinoma lines grown from tumours: OCI-P5x (papillary serous) and OCI-C5x (clear cell)
Reagents: siRNA pool against human genes, 1.25 pmol siRNA per well
Time to read-out: 72 h or 96 h, depending on the cell culture
Challenge: rucaparib 20 µM (about IC30) or vehicle, present until read-out
Rucaparib or vehicle: Vehicle
Cell line: OCI-C5x (clear cell)
Read-out: 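ATP luminescence measured at 72 or 96 h according to the culture, then normalised and expressed as percent viability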
Direction: viability, normalised: higher = more viable cells remaining
Hit rule: 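Active when normalised viability falls below 80 percent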
Calls: active = viability under 80%; inactive = viability 80% or more

What did the screen give for PAK6, technical replicate 1?
viability, normalised (%): 74.2; Outcome: active

For PAK6, technical replicate 1, how do the results read?
viability, normalised (%): 62.6; Outcome: active

With PAK6, technical replicate 2, what was measured?
viability, normalised (%): 66.4; Outcome: active

For PAK6, technical replicate 2, what does the deposit list?
viability, normalised (%): 60.3; Outcome: active

How did the screen score PAK6, technical replicate 3?
viability, normalised (%): 49.1; Outcome: active

For PAK6, technical replicate 3, what does the deposit list?
viability, normalised (%): 50.2; Outcome: active

Which result is listed for PHF11, technical replicate 1?
viability, normalised (%): 41.7; Outcome: active

For PHF11, technical replicate 2, what does the deposit list?
viability, normalised (%): 35.3; Outcome: active

For PHF11, technical replicate 3, what was measured?
viability, normalised (%): 56.1; Outcome: active

With YES1, technical replicate 1, what was measured?
viability, normalised (%): 94.5; Outcome: inactive

With YES1, technical replicate 1, what does the deposit list?
viability, normalised (%): 60.4; Outcome: active

For YES1, technical replicate 2, how do the results read?
viability, normalised (%): 52.3; Outcome: active

Which result is listed for YES1, technical replicate 2?
viability, normalised (%): 72.3; Outcome: active

With YES1, technical replicate 3, what was measured?
viability, normalised (%): 59.4; Outcome: active

Which result is listed for YES1, technical replicate 3?
viability, normalised (%): 76.3; Outcome: active

Which result is listed for RBBP4, technical replicate 1?
viability, normalised (%): 31.3; Outcome: active

What did the screen give for RBBP4, technical replicate 2?
viability, normalised (%): 29.2; Outcome: active

For RBBP4, technical replicate 3, what does the deposit list?
viability, normalised (%): 32.1; Outcome: active

With TLK2, technical replicate 1, how do the results read?
viability, normalised (%): 50.4; Outcome: active

What is on record for TLK2, technical replicate 1?
viability, normalised (%): 57.5; Outcome: active

What is on record for TLK2, technical replicate 2?
viability, normalised (%): 40.9; Outcome: active

What is on record for TLK2, technical replicate 2?
viability, normalised (%): 47.4; Outcome: active

With TLK2, technical replicate 3, what was measured?
viability, normalised (%): 31.4; Outcome: active

Which result is listed for TLK2, technical replicate 3?
viability, normalised (%): 51.2; Outcome: active
